# Laboratory results published in US20040044006A1, “Methods of use of quinolone compounds against pneumococcal and haemophilus bacteria” (priority 1999, published 2004).
# At least one read-out could not be matched to a standard name with certainty. Marks after values point to notes of the source that are not given here.
# System: penicillin susceptible and resistant pneumococcal strains (2 quinolone resistant)
# Assay: Time-kill testing of 12 pneumococcal strains
# Format: cell-based, Streptococcus pneumoniae
# Conditions: of 12 strains (macrolides 7)
# Description: For time-kill studies, glass tubes containing 5 ml cation-adjusted Mueller-Hinton broth (Difco)+5% lysed horse blood with doubling antibiotic concentrations were inoculated with 5×10^5 to 5×10^6 cfu/ml and incubated at 35° C. in a shaking water bath. […] Growth controls with inoculum but no antibiotic were included with each experiment (Pankuch, et al., Antimicrob. Agents Chemother. 38:2065-2072, 1994; Pankuch, et al., Antimicrob. Agents Chemother. 40:1653-1656, 1996).
# Lysed horse blood was prepared as described previously. The bacterial inoculum was prepared by diluting a 16 h broth (medium as above) culture in the same medium. Dilutions required to obtain the correct inoculum (5×10^5-5×10^6 cfu/ml) were determined by prior viability studies using each strain (Pankuch, et al., Antimicrob. Agents Chemother. 38:2065-2072, 1994; Pankuch, et al., Antimicrob. Agents Chemother. 40: 1653-1656, 1996).
# To inoculate each tube of serially diluted antibiotic, 50 μl of diluted inoculum was delivered by pipette beneath the surface of the broth. Tubes were then vortexed and plated for viability counts within 10 min (approximately 0.2 h). The original inoculum was determined by using the untreated growth control. Only tubes containing an initial inoculum within the range of 5×10^5 to 5×10^6 cfu/ml were acceptable (Pankuch, et al., Antimicrob. Agents Chemother. 38:2065-2072, 1994; Pankuch, et al., Antimicrob. Agents Chemother. 40:1653-1656, 1996).
# Viability counts of antibiotic-containing suspensions were performed by plating ten-fold dilutions of 0.1 ml aliquots from each tube in sterile Mueller-t-Hinton broth onto trypticase soy agar 5% sheep blood agar plates (BBL). Recovery plates were incubated for up to 72 h. Colony Counts were performed on plates yielding 30-300 colonies. The lower limit of sensitivity of colony counts was 300 cfu/ml (Pankuch, et al., Antimicrob. Agents Chemother. 38:2065-2072, 1994; Pankuch, et al., Antimicrob. Agents Chemother. 40:1653-1656, 1996).
# Time-kill assays were analysed by determining the number of strains which yielded a log10 cfu/ml of −1, −2 and −3 at 0, 3, 6, 12 and 24 h, compared to counts at time 0 h. Antimicrobials were considered bactericidal at the lowest concentration that reduced the original inoculum by ≧3 log10 cfu/ml (99.9%) at each of the time periods, and bacteriostatic if the inoculum was reduced by 0-3 log10 cfu/ml. […] The problem of bacterial carryover was addressed as described previously. For macrolide time-kill testing, only strains with MICs≦4.0 μg/ml were tested (Pankuch, et al., Antimicrob. Agents Chemother. 38:2065-9072, 1994; Pankuch, et al., Antimicrob. Agents Chemother. 40:1653-1656, 1996).
smiles,measurement,setting,value
"CO/N=C1\CN(c2nc3c(cc2F)c(=O)c(C(=O)O)cn3C2CC2)CC1CN (racemic) [Gemifloxacin, (R,S)-7-(3-aminomethyl-4-methoxyiminopyrrolidin-1-yl)-1-cyclopropyl-6-fluoro-4-oxo-1,4-dihydro-1,8-naphthyridine-3-carboxylic acid]",No. strains −1 Log10 cfu/ml lower than 0 h,"3 h, 0.25 × MIC",0 No. strains
same,No. strains −2 Log10 cfu/ml lower than 0 h,"3 h, 0.25 × MIC",0 No. strains
same,No. strains −3 Log10 cfu/ml lower than 0 h,"3 h, 0.25 × MIC",0 No. strains
same,No. strains −1 Log10 cfu/ml lower than 0 h,"3 h, 0.5 × MIC",1 No. strains
same,No. strains −2 Log10 cfu/ml lower than 0 h,"3 h, 0.5 × MIC",0 No. strains
same,No. strains −3 Log10 cfu/ml lower than 0 h,"3 h, 0.5 × MIC",0 No. strains
same,No. strains −1 Log10 cfu/ml lower than 0 h,"3 h, 2 × MIC",6 No. strains
same,No. strains −2 Log10 cfu/ml lower than 0 h,"3 h, 2 × MIC",0 No. strains
same,No. strains −3 Log10 cfu/ml lower than 0 h,"3 h, 2 × MIC",0 No. strains
same,No. strains −1 Log10 cfu/ml lower than 0 h,"3 h, 4 × MIC",9 No. strains
same,No. strains −2 Log10 cfu/ml lower than 0 h,"3 h, 4 × MIC",1 No. strains
same,No. strains −3 Log10 cfu/ml lower than 0 h,"3 h, 4 × MIC",0 No. strains
same,No. strains −1 Log10 cfu/ml lower than 0 h,"3 h, 8 × MIC",10^b No. strains
same,No. strains −2 Log10 cfu/ml lower than 0 h,"3 h, 8 × MIC",2 No. strains
same,No. strains −3 Log10 cfu/ml lower than 0 h,"3 h, 8 × MIC",0 No. strains
same,No. strains −1 Log10 cfu/ml lower than 0 h,"3 h, MIC",4 No. strains
same,No. strains −2 Log10 cfu/ml lower than 0 h,"3 h, MIC",1 No. strains
same,No. strains −3 Log10 cfu/ml lower than 0 h,"3 h, MIC",0 No. strains
same,No. strains −1 Log10 cfu/ml lower than 0 h,"6 h, 0.25 × MIC",0 No. strains
same,No. strains −2 Log10 cfu/ml lower than 0 h,"6 h, 0.25 × MIC",0 No. strains
same,No. strains −3 Log10 cfu/ml lower than 0 h,"6 h, 0.25 × MIC",0 No. strains
same,No. strains −1 Log10 cfu/ml lower than 0 h,"6 h, 0.5 × MIC",4 No. strains
same,No. strains −2 Log10 cfu/ml lower than 0 h,"6 h, 0.5 × MIC",0 No. strains
same,No. strains −3 Log10 cfu/ml lower than 0 h,"6 h, 0.5 × MIC",0 No. strains
same,No. strains −1 Log10 cfu/ml lower than 0 h,"6 h, 2 × MIC",12 No. strains
same,No. strains −2 Log10 cfu/ml lower than 0 h,"6 h, 2 × MIC",7 No. strains
same,No. strains −3 Log10 cfu/ml lower than 0 h,"6 h, 2 × MIC",0 No. strains
same,No. strains −1 Log10 cfu/ml lower than 0 h,"6 h, 4 × MIC",12 No. strains
same,No. strains −2 Log10 cfu/ml lower than 0 h,"6 h, 4 × MIC",8 No. strains
same,No. strains −3 Log10 cfu/ml lower than 0 h,"6 h, 4 × MIC",0 No. strains
same,No. strains −1 Log10 cfu/ml lower than 0 h,"6 h, 8 × MIC",12 No. strains
same,No. strains −2 Log10 cfu/ml lower than 0 h,"6 h, 8 × MIC",8 No. strains
same,No. strains −3 Log10 cfu/ml lower than 0 h,"6 h, 8 × MIC",2 No. strains
same,No. strains −1 Log10 cfu/ml lower than 0 h,"6 h, MIC",11 No. strains
same,No. strains −2 Log10 cfu/ml lower than 0 h,"6 h, MIC",2 No. strains
same,No. strains −3 Log10 cfu/ml lower than 0 h,"6 h, MIC",0 No. strains
same,No. strains −1 Log10 cfu/ml lower than 0 h,"12 h, 0.25 × MIC",0 No. strains
same,No. strains −2 Log10 cfu/ml lower than 0 h,"12 h, 0.25 × MIC",0 No. strains
same,No. strains −3 Log10 cfu/ml lower than 0 h,"12 h, 0.25 × MIC",0 No. strains
same,No. strains −1 Log10 cfu/ml lower than 0 h,"12 h, 0.5 × MIC",3 No. strains
same,No. strains −2 Log10 cfu/ml lower than 0 h,"12 h, 0.5 × MIC",0 No. strains
same,No. strains −3 Log10 cfu/ml lower than 0 h,"12 h, 0.5 × MIC",0 No. strains
same,No. strains −1 Log10 cfu/ml lower than 0 h,"12 h, 2 × MIC",12 No. strains
same,No. strains −2 Log10 cfu/ml lower than 0 h,"12 h, 2 × MIC",11 No. strains
same,No. strains −3 Log10 cfu/ml lower than 0 h,"12 h, 2 × MIC",8 No. strains
same,No. strains −1 Log10 cfu/ml lower than 0 h,"12 h, 4 × MIC",12 No. strains
same,No. strains −2 Log10 cfu/ml lower than 0 h,"12 h, 4 × MIC",12 No. strains
same,No. strains −3 Log10 cfu/ml lower than 0 h,"12 h, 4 × MIC",8 No. strains
same,No. strains −1 Log10 cfu/ml lower than 0 h,"12 h, 8 × MIC",12 No. strains
same,No. strains −2 Log10 cfu/ml lower than 0 h,"12 h, 8 × MIC",12 No. strains
same,No. strains −3 Log10 cfu/ml lower than 0 h,"12 h, 8 × MIC",9 No. strains
same,No. strains −1 Log10 cfu/ml lower than 0 h,"12 h, MIC",12 No. strains
same,No. strains −2 Log10 cfu/ml lower than 0 h,"12 h, MIC",8 No. strains
same,No. strains −3 Log10 cfu/ml lower than 0 h,"12 h, MIC",3 No. strains
same,No. strains −1 Log10 cfu/ml lower than 0 h,"24 h, 0.25 × MIC",0 No. strains
same,No. strains −2 Log10 cfu/ml lower than 0 h,"24 h, 0.25 × MIC",0 No. strains
same,No. strains −3 Log10 cfu/ml lower than 0 h,"24 h, 0.25 × MIC",0 No. strains
same,No. strains −1 Log10 cfu/ml lower than 0 h,"24 h, 0.5 × MIC",2 No. strains
same,No. strains −2 Log10 cfu/ml lower than 0 h,"24 h, 0.5 × MIC",2 No. strains
same,No. strains −3 Log10 cfu/ml lower than 0 h,"24 h, 0.5 × MIC",0 No. strains
same,No. strains −1 Log10 cfu/ml lower than 0 h,"24 h, 2 × MIC",12 No. strains
same,No. strains −2 Log10 cfu/ml lower than 0 h,"24 h, 2 × MIC",12 No. strains
same,No. strains −3 Log10 cfu/ml lower than 0 h,"24 h, 2 × MIC",12 No. strains
same,No. strains −1 Log10 cfu/ml lower than 0 h,"24 h, 4 × MIC",12 No. strains
same,No. strains −2 Log10 cfu/ml lower than 0 h,"24 h, 4 × MIC",12 No. strains
same,No. strains −3 Log10 cfu/ml lower than 0 h,"24 h, 4 × MIC",12 No. strains
same,No. strains −1 Log10 cfu/ml lower than 0 h,"24 h, 8 × MIC",12 No. strains
same,No. strains −2 Log10 cfu/ml lower than 0 h,"24 h, 8 × MIC",12 No. strains
same,No. strains −3 Log10 cfu/ml lower than 0 h,"24 h, 8 × MIC",12 No. strains
same,No. strains −1 Log10 cfu/ml lower than 0 h,"24 h, MIC",12 No. strains
same,No. strains −2 Log10 cfu/ml lower than 0 h,"24 h, MIC",10 No. strains
same,No. strains −3 Log10 cfu/ml lower than 0 h,"24 h, MIC",8 No. strains
